At least one structure is not confirmed: it was looked up by name or label, or the drawing left a doubt.
Test system: H. felis ATCC 49179
Conditions: monotherapeutic treatment, therapeutically used doses
Experimental: The bacteria are administered by stomach tube as a suspension (0.1 ml containing 10^8-10^9 bacteria) 4 times in the course of 7 days. Alternatively to this, stomach homogenates of previously infected mice were used for infection.
3-5 days after establishment of the infection, the treatment with test preparations was begun. […] In some cases, the bacterial eradication was also determined 2-4 weeks after the end of treatment. Following the “CLO” test used in clinical diagnosis, a urease test on a microtitre basis was employed. Defined stomach biopsy samples were tested for colour change within 24 hours.

**Q.** For `CC1COc2c(N3CCN(C)CC3)c(F)cc3c(=O)c(C(=O)O)cn1c23` (stereo not shown) [ofloxacin, reference compound], which “Eradication of H. felis in the mouse model, monotherapy” value is on record?
**A.** not able to lead to an eradication

Source: US6432948B1, “USE OF 7-(2-OXA-5,8-DIAZABICYLCO[4.3.0]NON-8-YL)-QUINOLONE CARBOXYLIC ACID AND NAPHTHYRIDON CARBOXYLIC ACID DERIVATIVES FOR THE TREATMENT OF HELIOBACTER PYLORI INFECTIONS AND ASSOCIATED GASTRODUODENAL DISEASES” (Bayer Aktiengesellschaft, priority 1996, dated 2002)
